Laboratory results taken from article PMC5058744.
No constants are given. Whether binding was seen depends on the method and setting. In cells and extracts the contact can be indirect. Some binding calls cover weakened binding; strength is not graded here.

By UniProt entry, the sequences of proteins in these tests, tags left out.
UniProt O94810: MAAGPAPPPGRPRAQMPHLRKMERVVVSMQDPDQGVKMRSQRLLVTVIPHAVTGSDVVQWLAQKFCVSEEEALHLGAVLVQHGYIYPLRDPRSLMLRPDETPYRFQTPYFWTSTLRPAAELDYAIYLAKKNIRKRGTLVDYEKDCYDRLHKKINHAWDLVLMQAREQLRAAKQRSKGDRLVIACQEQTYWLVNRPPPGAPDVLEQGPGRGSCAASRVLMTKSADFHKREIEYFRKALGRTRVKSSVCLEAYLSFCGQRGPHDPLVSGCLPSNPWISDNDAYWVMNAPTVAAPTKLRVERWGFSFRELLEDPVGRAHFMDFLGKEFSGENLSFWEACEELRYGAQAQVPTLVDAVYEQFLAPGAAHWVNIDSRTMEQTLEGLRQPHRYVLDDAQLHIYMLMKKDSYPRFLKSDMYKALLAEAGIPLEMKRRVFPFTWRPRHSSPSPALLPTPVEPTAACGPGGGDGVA
UniProt P60953: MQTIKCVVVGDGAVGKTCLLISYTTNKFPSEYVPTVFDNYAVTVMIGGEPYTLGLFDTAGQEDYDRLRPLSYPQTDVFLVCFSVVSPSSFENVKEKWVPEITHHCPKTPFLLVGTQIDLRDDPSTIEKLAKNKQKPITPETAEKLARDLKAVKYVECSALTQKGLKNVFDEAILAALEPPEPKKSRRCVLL
UniProt O14775: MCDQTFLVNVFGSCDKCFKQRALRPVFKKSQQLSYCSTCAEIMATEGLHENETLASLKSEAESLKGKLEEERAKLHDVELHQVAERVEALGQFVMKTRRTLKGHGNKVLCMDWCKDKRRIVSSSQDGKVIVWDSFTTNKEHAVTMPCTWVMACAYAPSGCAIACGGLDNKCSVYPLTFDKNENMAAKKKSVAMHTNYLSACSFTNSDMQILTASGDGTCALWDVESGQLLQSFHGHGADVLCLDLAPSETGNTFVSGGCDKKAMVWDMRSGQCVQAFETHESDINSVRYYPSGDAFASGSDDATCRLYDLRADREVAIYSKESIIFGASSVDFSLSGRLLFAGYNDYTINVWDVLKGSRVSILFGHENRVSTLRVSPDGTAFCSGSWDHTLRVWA
UniProt P61586: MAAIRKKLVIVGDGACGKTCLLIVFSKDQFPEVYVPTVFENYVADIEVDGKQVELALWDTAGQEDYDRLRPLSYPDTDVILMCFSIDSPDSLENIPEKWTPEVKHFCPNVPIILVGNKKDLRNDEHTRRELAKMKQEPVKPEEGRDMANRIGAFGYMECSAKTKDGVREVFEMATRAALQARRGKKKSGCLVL

Target: Regulator of G protein signaling 11 (human) (UniProt O94810)
Experiment: co-IP; CL1-0 R+G stable transfectants fixed with 4% paraformaldehyde for 20 min, lysed in RIPA buffer; 500 ug pre-cleared lysate with home-made murine anti-RGS11 antibody (20 ug) for 2 h, then Protein A/G Sepharose at 4°C overnight; blotted for RGS11, GNB5, RhoA, Rac1, CDC42

| Substance | binding |
| --- | --- |
| CDC42 (from UniProt P60953 1-191) | no binding |
| guanine nucleotide-binding protein beta-5 (from UniProt O14775 1-395) | binds |
| RhoA (from UniProt P61586 1-193) | no binding |
